Source: the supplement of paper PMC10849652
The other results are listed elsewhere or left out.

Amino acid sequences for entries named in this document (tags omitted). A change or cut given only in a name is not applied to a line headed by its entry.
UniProt Q9Y6B2: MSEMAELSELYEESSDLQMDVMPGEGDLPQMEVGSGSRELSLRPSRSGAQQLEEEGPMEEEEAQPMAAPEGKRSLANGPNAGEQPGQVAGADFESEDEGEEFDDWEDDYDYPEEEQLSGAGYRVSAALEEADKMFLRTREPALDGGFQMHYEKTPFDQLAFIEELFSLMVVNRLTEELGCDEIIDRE
UniProt Q9Y3B6: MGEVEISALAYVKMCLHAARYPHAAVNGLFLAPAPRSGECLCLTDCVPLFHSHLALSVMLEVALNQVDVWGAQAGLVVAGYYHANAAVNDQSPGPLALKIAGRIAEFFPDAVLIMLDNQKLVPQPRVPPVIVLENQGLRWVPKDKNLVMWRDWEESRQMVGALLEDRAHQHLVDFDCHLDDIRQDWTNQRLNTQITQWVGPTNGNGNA
UniProt O75822, whole entry, looked up: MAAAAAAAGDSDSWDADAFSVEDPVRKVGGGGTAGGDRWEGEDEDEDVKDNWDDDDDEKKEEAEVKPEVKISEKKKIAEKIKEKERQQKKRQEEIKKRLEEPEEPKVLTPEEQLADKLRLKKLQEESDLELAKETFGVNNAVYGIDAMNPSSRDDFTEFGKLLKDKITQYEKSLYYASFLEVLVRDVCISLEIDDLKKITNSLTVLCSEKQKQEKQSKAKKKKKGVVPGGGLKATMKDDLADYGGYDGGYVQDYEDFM
UniProt Q9BUP0: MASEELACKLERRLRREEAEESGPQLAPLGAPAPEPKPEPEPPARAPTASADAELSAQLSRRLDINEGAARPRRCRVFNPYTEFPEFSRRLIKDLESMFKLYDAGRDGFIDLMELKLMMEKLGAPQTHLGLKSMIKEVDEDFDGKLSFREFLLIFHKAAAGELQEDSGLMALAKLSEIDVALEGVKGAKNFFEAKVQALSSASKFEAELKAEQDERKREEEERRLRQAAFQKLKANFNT
UniProt Q9NQZ7: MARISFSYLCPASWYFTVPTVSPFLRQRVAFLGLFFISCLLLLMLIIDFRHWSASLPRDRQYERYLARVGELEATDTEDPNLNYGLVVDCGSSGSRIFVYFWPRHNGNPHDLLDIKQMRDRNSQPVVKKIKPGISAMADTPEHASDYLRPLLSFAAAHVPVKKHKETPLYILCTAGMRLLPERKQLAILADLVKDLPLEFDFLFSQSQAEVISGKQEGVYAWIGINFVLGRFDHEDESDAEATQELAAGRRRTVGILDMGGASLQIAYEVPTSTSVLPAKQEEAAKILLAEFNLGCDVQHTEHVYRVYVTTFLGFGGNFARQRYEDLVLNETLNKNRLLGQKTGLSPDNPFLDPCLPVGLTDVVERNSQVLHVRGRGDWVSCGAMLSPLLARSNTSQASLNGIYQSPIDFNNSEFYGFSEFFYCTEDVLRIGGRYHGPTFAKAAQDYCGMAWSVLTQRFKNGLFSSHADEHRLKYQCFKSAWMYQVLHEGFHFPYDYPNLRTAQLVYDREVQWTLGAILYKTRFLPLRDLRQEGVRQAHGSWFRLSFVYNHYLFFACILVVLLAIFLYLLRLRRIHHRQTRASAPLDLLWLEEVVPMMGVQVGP
UniProt P32519: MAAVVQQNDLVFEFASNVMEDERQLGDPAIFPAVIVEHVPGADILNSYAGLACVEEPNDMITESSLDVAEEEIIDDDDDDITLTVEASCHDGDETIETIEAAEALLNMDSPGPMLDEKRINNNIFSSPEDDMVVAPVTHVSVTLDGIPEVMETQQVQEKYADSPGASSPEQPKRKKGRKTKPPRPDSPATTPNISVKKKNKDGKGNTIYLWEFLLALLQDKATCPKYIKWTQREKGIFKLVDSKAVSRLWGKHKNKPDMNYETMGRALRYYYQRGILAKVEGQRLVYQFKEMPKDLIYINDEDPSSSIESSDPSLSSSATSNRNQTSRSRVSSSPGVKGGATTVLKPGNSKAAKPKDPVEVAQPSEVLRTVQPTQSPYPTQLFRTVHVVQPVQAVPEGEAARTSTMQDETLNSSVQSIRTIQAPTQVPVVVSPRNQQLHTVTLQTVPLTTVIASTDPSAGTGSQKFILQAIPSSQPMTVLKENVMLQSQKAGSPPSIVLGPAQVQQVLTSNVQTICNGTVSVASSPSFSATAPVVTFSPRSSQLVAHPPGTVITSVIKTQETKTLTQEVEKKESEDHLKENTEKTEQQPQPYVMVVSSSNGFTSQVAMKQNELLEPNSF
UniProt Q9H777: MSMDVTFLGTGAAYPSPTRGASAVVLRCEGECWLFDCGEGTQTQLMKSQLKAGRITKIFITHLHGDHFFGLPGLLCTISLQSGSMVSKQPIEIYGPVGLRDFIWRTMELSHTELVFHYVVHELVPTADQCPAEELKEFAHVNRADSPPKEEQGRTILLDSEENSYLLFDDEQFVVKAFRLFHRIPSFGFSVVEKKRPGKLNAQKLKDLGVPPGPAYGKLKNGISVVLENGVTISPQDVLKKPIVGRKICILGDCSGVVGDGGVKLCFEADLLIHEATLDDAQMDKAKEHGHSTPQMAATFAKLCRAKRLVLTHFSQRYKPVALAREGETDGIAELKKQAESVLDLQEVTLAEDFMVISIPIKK
UniProt O00418: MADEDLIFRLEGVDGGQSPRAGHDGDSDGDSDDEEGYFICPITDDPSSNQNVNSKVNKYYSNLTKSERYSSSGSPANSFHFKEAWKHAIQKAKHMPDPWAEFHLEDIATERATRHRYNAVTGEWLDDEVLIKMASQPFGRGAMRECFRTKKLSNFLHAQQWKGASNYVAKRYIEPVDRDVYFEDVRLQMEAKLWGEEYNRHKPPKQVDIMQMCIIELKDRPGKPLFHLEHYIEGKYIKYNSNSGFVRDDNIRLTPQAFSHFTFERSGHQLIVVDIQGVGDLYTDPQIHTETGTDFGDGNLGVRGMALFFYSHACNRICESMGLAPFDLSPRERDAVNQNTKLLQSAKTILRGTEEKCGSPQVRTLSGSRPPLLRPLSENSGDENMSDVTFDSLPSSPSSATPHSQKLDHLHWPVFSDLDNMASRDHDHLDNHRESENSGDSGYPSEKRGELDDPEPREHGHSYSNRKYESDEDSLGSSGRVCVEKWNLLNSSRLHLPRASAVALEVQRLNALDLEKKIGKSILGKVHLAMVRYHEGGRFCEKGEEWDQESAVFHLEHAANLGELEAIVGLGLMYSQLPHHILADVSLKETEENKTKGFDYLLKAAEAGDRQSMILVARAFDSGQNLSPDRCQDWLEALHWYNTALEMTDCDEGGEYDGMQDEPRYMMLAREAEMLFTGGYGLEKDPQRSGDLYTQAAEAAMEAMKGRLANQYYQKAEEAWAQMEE
UniProt Q9GZV4: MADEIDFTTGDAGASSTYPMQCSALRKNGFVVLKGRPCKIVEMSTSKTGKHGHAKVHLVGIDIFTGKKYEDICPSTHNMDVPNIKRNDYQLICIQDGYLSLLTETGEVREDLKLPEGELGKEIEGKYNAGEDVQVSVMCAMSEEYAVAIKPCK
UniProt Q12805: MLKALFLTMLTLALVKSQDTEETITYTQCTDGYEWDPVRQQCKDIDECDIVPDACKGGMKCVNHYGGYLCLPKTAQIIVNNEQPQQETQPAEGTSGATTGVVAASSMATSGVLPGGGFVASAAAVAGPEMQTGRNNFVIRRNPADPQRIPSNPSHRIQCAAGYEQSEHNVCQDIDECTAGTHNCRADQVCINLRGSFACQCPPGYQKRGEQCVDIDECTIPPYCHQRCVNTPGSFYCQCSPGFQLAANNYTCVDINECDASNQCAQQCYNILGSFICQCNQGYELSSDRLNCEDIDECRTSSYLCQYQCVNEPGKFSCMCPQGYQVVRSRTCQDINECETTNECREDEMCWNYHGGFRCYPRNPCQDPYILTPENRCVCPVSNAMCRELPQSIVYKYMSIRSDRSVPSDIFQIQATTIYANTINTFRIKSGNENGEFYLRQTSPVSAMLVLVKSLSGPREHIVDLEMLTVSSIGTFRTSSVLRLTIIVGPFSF
UniProt Q8NDI1: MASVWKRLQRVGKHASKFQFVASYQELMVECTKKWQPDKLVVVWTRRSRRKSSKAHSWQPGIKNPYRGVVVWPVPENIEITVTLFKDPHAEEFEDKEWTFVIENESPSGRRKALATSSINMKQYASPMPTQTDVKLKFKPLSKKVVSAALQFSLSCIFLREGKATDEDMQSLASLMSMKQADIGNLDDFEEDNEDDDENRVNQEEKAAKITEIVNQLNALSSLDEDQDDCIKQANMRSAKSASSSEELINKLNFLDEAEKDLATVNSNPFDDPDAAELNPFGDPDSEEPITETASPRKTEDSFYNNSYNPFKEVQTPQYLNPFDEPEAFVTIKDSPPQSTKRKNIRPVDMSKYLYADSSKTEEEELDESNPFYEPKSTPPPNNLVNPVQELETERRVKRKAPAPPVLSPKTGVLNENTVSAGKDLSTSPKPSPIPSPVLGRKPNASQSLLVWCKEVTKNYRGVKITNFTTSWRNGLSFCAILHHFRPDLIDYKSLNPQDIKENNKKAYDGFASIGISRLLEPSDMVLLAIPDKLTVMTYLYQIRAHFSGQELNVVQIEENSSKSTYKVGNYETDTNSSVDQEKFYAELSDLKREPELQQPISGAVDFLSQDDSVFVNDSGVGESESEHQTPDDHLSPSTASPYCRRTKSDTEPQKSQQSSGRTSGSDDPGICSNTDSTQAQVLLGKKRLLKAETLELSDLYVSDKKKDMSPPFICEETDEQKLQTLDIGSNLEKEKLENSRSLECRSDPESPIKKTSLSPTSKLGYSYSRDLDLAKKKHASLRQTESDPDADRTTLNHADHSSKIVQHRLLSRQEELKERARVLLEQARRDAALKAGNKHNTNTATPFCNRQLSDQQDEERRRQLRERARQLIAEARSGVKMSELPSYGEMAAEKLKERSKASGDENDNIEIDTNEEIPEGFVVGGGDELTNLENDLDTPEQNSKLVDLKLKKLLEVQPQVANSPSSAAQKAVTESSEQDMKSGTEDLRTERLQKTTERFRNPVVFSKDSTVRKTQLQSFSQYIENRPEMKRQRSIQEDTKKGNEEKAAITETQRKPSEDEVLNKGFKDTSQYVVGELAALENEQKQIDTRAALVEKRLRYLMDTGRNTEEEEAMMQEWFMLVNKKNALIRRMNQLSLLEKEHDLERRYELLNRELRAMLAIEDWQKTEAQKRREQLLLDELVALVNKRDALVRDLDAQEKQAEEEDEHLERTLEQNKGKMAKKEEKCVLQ
UniProt Q5VUJ9: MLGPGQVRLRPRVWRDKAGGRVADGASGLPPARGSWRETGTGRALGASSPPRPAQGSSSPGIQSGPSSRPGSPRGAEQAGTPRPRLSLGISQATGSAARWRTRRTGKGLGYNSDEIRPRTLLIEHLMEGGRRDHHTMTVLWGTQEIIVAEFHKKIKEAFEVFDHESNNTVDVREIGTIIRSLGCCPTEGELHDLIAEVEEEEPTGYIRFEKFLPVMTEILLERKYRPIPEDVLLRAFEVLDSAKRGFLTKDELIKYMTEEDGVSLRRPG
UniProt O75355: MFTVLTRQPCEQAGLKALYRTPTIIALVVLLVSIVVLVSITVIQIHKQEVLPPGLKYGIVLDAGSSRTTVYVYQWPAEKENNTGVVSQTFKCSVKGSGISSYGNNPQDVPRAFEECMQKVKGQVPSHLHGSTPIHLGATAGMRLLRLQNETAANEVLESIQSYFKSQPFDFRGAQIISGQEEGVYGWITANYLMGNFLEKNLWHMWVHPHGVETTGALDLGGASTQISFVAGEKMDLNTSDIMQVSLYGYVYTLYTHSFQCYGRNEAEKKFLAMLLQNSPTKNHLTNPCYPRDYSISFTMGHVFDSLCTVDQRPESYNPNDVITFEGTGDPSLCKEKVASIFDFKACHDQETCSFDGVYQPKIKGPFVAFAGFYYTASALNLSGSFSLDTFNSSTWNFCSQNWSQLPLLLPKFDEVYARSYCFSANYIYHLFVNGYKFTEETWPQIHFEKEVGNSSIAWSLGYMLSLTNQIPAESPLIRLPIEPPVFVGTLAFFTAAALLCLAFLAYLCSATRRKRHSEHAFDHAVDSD
UniProt Q96C92: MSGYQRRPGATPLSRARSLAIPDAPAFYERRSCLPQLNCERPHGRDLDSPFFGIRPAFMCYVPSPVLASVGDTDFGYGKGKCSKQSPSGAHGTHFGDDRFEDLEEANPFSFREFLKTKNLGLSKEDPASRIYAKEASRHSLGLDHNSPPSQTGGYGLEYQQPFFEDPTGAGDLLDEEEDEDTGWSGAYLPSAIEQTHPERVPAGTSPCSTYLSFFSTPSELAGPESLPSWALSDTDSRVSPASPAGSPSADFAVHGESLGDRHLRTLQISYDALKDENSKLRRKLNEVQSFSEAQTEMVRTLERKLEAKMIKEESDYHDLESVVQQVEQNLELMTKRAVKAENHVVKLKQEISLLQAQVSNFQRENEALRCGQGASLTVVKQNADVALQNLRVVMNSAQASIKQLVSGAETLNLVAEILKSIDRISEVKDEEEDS
UniProt Q5JPI9: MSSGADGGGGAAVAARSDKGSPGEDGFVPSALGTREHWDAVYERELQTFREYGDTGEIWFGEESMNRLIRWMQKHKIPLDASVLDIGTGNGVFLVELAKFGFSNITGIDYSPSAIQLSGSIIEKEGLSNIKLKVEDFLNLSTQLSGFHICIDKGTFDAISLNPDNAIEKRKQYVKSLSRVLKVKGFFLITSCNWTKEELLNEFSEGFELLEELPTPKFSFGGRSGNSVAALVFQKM

These targets were tested with Cc1ncc(-c2ccnc(Nc3ccc(S(C)(=O)=O)cc3)n2)n1C(C)C (assay: log2 fold change, soluble protein after heating vs DMSO (PISA); higher = thermal stabilisation; K562 cells, 10 uM, 30 min; active = over 0.2 and 3.5 SD of the protein, either way, in both replicates (recomputed)).
Method in brief: (§1)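 For each measurement, 10 μM compound was applied for 30 min to K562 cells at 2×10^6 cells/mL. Aliquots were heated for 3 min across 48°C-58°C, pooled, and extracted in PBS with 0.5% NP-40 at 4°C; the supernatant after 21,000xg for 90 min was soluble protein. This was quantified by TMTpro 16plex LC-MS/MS with channel sums equalised, and thermal stability was reported relative to control samples from duplicates, on a log2 fold-change scale.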
EID1 (UniProt Q9Y6B2) was tested, and the log2 fold change was inactive: -0.032.
EMC9 (UniProt Q9Y3B6) was tested, and the log2 fold change was inactive: 0.028.
For EIF3J isoform 2 (UniProt O75822), the log2 fold change was inactive: -0.013.
For EFHD1 (UniProt Q9BUP0), the log2 fold change was inactive: 0.199.
In the case of EFR3A (UniProt Q14156), the log2 fold change is reported as inactive: 0.015.
With ENTPD7 (UniProt Q9NQZ7) the log2 fold change was inactive: 0.056.
In the case of ELF1 (UniProt P32519), the log2 fold change is reported as inactive: 0.122.
ELAC1 (UniProt Q9H777) was tested, and the log2 fold change was inactive: -0.103.
In the case of EPB41, A0A2R8Y783, the log2 fold change is reported as inactive: -0.044.

These targets were tested with Cn1cc(-c2ccc3c(c2)CCN3C(=O)Cc2cccc(C(F)(F)F)c2)c2c(N)ncnc21 in the same assay as above.
Method in brief: as §1
In the case of EFHD1 (UniProt Q9BUP0), the log2 fold change is reported as inactive: -0.034.
For ELOVL7 (UniProt A1L3X0), the log2 fold change was inactive: -0.057.
EP400 (UniProt Q96L91) was tested, and the log2 fold change was inactive: -0.109.
EIF4G1 (UniProt Q04637) was tested, and the log2 fold change was inactive: -0.032.
For EEF2K (UniProt O00418), the log2 fold change was inactive: -0.108.
EIF3I (UniProt Q5TFK1) was tested, and the log2 fold change was inactive: 0.003.
With EIF5A2 (UniProt Q9GZV4) the log2 fold change was inactive: 0.062.
For EFEMP1 (UniProt Q12805), the log2 fold change was inactive: 0.164.
ELF1 (UniProt P32519) was tested, and the log2 fold change was inactive: 0.003.
ELAC1 (UniProt Q9H777) was tested, and the log2 fold change was inactive: -0.032.
For EHBP1 (UniProt Q8NDI1), the log2 fold change was inactive: -0.076.

Each target was assayed with Cn1cc(-c2ccc3nnc(C(F)(F)c4ccc5ncccc5c4)n3n2)cn1 in the same assay as above.
Method in brief: as §1
With ELMO2 (UniProt Q96JJ3) the log2 fold change was inactive: 0.069.
With EP400P1 isoform 6 (UniProt Q6ZTU2) the log2 fold change was inactive: -0.061.
In the case of EIF5A (UniProt I3L397), the log2 fold change is reported as inactive: -0.137.
With EIF4E3 (UniProt Q8N5X7) the log2 fold change was inactive: -0.014.
With EEF2K (UniProt O00418) the log2 fold change was inactive: 0.
For EIF3I (UniProt Q5TFK1), the log2 fold change was inactive: 0.169.
For ENO3 (UniProt K7EKN2), the log2 fold change was inactive: 0.04.
EIF5A2 (UniProt Q9GZV4) was tested, and the log2 fold change was inactive: 0.013.
In the case of EIF1B (UniProt O60739), the log2 fold change is reported as inactive: -0.039.
EFEMP1 (UniProt Q12805) was tested, and the log2 fold change was inactive: -0.156.
ELF1 (UniProt P32519) was tested, and the log2 fold change was inactive: 0.049.
In the case of EFCAB2 (UniProt Q5VUJ9), the log2 fold change is reported as inactive: -0.019.

Each target was assayed with Cn1cncc1[C@@](N)(c1ccc(Cl)cc1)c1ccc2c(c1)c(-c1cccc(Cl)c1)cc(=O)n2C [tipifarnib] in the same assay as above.
Method in brief: as §1
EID1 (UniProt Q9Y6B2) was tested, and the log2 fold change was inactive: -0.097.
EIF3J isoform 2 (UniProt O75822) was tested, and the log2 fold change was inactive: 0.078.
In the case of ENTPD3 (UniProt O75355), the log2 fold change is reported as inactive: 0.03.
In the case of ENTPD7 (UniProt Q9NQZ7), the log2 fold change is reported as inactive: 0.163.
For EEF2K (UniProt O00418), the log2 fold change was inactive: -0.092.
For EFEMP1 (UniProt Q12805), the log2 fold change was inactive: 0.086.
With ELF1 (UniProt P32519) the log2 fold change was inactive: -0.024.
In the case of ELP5 isoform 2 (UniProt Q8TE02), the log2 fold change is reported as inactive: 0.101.
ELAC1 (UniProt Q9H777) was tested, and the log2 fold change was inactive: 0.036.
For ENKD1 (UniProt Q9H0I2), the log2 fold change was inactive: -0.074.
In the case of ENTR1 (UniProt Q96C92), the log2 fold change is reported as inactive: 0.259.

These targets were tested with FC(F)(F)c1ccc(/C=C/c2nc(COc3ccc(CCCCn4ccnn4)cc3)co2)cc1 [mubritinib] in the same assay as above.
Method in brief: as §1
EID1 (UniProt Q9Y6B2) was tested, and the log2 fold change was inactive: 0.208.
With EIF3J isoform 2 (UniProt O75822) the log2 fold change was inactive: 0.1.
For EFR3A (UniProt Q14156), the log2 fold change was inactive: 0.204.
With EP400 (UniProt Q96L91) the log2 fold change was inactive: -0.182.
In the case of ENTPD7 (UniProt Q9NQZ7), the log2 fold change is reported as inactive: 0.097.
With EEF2K (UniProt O00418) the log2 fold change was inactive: -0.371.
In the case of EEF1D isoform 3 (UniProt P29692), the log2 fold change is reported as inactive: -0.014.
For EIF5A2 (UniProt Q9GZV4), the log2 fold change was inactive: 0.011.
With EIF1B (UniProt O60739) the log2 fold change was inactive: -0.053.
With EEF1AKMT2 (UniProt Q5JPI9) the log2 fold change was inactive: -0.229.
In the case of EHBP1 (UniProt Q8NDI1), the log2 fold change is reported as active: -0.586.
In the case of ELOA (UniProt Q14241), the log2 fold change is reported as inactive: 0.42.
